# At least one structure is not confirmed: it was looked up by name or label, or the drawing left a doubt.
# Test system: bone marrow cells (CD138-)
# Experiment: Ex vivo treatment of multiple myeloma bone marrow aspirates, reverse phase protein microarray signal pathway mapping
# Assay type: cell-based, human
# Details: female, treatment naive multiple myeloma patient; 4 hours ex vivo; BMC (CD138-) cell population; versus vehicle control (FIG. 3)
compound,measurement,value
Cc1nc(Nc2ncc(C(=O)Nc3c(C)cccc3Cl)s2)cc(N2CCN(CCO)CC2)n1 [Dasatinib],NFkB p65 Ser536,increase

# Source: patent US20110207627A1, “EX VIVO THERAPEUTICS SCREENING OF LIVING BONE MARROW CELLS FOR MULTIPLE MYELOMA” (GEORGE MASON UNIVERSITY, priority 2008, published 2011)
